Reference: the supplement of paper PMC7877785
± gives the uncertainty stated by the source. Many of these values have a large error.

Test: self-splicing fitness, log relative to wild type (ln ratio); higher = more splicing; Tetrahymena group I intron in knt gene, E. coli kanamycin selection, DiMSum; sequences stand for … in CUCUCU…GGAGGGAAAAGUUAUCAGGCAUGCACCUGGUAGCUAGUCUUUAAACCAAUAGAUUGCAUCGGUUUAAAAGGCAAGACCGUCAAAUUGCGGGAAAGGGGUCAACAGCCGUUCAGUACCAAGUCUCAGGGGAAACUUUGAGAUGGCCUUGCAAAGGGUAUGGUAAUAAGCUGACGGACAUGGUCCUAACCACGCAGCCAAGUCCUAAGUCAACAGAUCUUCUGUUGAUAUGGAUGCAGUUCACAGACUAAAUGUCGGUCGGGGAAGAUGUAUUCUUCUCAUAAGAUAUAGUCGGACCUCUCCUUAAUGGGAGCUAGCGGAUGAAGUGAUGCAACACUGGAGCCGCUGGGAACUAAUUUGUAUGCGAAAGUAUAUUGAUUAGUUUUGGAGUACUCGUGGUCG
Procedure, shortened: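 DiMSum derived fitness as the error-weighted combination of fold changes across replicates, kanamycin versus no kanamycin, normalised to wild type. E. coli BL21(DE3) held the library, which randomised all eight P1ex-region intron nucleotides within the knt kanamycin-resistance gene on pET-22b(+). Six replicate transformations grew overnight at 37°C or 30°C on LB agar with or without 25 μg/mL kanamycin, also containing 100 μg/mL carbenicillin, 50 μM IPTG and 0.2% rhamnose, and pooled colonies were amplicon-sequenced on an Illumina HiSeq 2500.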

Sequence | self-splicing fitness (ln) (30 °C) | self-splicing fitness (ln) (37 °C)
CUUUAGCAAUAUUACGGUCC | -3.49 ± 0.6 | –
CUUAAGCAAUAUUACGCACC | – | -3.09 ± 1
CUAGAGCAAUAUUACGCUAU | -4.4 ± 0.74 | –
CCGAAGCAAUAUUACGCCAA | -2.33 ± 0.64 | -2.76 ± 0.76
CCGGAGCAAUAUUACGAUAU | -4.23 ± 0.6 | –
GCGGAGCAAUAUUACGCGGA | – | -2.61 ± 0.54
CUGAAGCAAUAUUACGGGUC | – | -3.54 ± 0.73
CGAGAGCAAUAUUACGCAGC | -3.17 ± 0.77 | –
GUACAGCAAUAUUACGAAGG | -3.72 ± 0.74 | –
AGUGAGCAAUAUUACGCUUG | -2.09 ± 1.4 | -0.778 ± 0.82
UGGCAGCAAUAUUACGGCCA | -2.33 ± 0.87 | –
UUAUAGCAAUAUUACGAGAA | -2.3 ± 0.8 | –
ACGGAGCAAUAUUACGAGAC | – | -2.82 ± 0.75
CGUGAGCAAUAUUACGACAA | -4.31 ± 0.51 | –
CUAGAGCAAUAUUACGCUAC | – | -3.22 ± 0.52
AACGAGCAAUAUUACGGAUG | – | -3.46 ± 0.59
UGCCAGCAAUAUUACGAAAC | -4.09 ± 0.59 | –
UUGGAGCAAUAUUACGCCCU | -2.44 ± 1.1 | –
CUUCAGCAAUAUUACGACUA | – | -2.82 ± 0.53
CGUGAGCAAUAUUACGUAAA | -4.01 ± 0.72 | –
GUAGAGCAAUAUUACGCUAU | -2.44 ± 0.63 | -0.405 ± 0.77

Sequence | self-splicing fitness (ln) (30 °C) | self-splicing fitness (ln) (37 °C)
UUCUAGCAAUAUUACGUGCC | – | -2.63 ± 1.1
CGCCAGCAAUAUUACGUAAU | -2.67 ± 0.12 | -1.71 ± 0.15
CAUUAGCAAUAUUACGUGCA | -2.31 ± 0.28 | -3.05 ± 0.74
UGCUAGCAAUAUUACGCCGU | -3.57 ± 0.54 | -2.06 ± 0.8
GUUAAGCAAUAUUACGCUAU | -3.81 ± 0.73 | –
UUGGAGCAAUAUUACGGAAU | -2.98 ± 0.54 | -4.04 ± 0.72
ACGCAGCAAUAUUACGUUAA | -3.4 ± 0.31 | -2.88 ± 0.24
UCAGAGCAAUAUUACGGGCC | – | -2.57 ± 1.1
CGUAAGCAAUAUUACGAUGC | -3.96 ± 0.6 | –
CCAGAGCAAUAUUACGCCCA | -2.71 ± 0.66 | -1.33 ± 0.64
GCGGAGCAAUAUUACGCUGA | – | -3 ± 0.6
AAAUAGCAAUAUUACGAGAC | – | -0.595 ± 1.4
AUCGAGCAAUAUUACGGCCA | -1.35 ± 0.41 | -1.47 ± 0.37
ACUAAGCAAUAUUACGACUU | -0.429 ± 0.093 | 0.924 ± 0.12
CCGGAGCAAUAUUACGUCUU | -5.88 ± 1 | -3.51 ± 0.6
GCUGAGCAAUAUUACGCUAA | – | -1.69 ± 0.52
GGAGAGCAAUAUUACGGAGC | -4.88 ± 1 | -2.8 ± 0.53
UUACAGCAAUAUUACGGCAC | -1.77 ± 0.17 | -2.26 ± 0.18
GUUUAGCAAUAUUACGGAGC | -3.7 ± 0.53 | –
CGGGAGCAAUAUUACGAACU | -3.58 ± 0.76 | –
AUAAAGCAAUAUUACGGGAC | -1.72 ± 0.1 | -2.4 ± 0.16

Sequence | self-splicing fitness (ln) (30 °C) | self-splicing fitness (ln) (37 °C)
UUCAAGCAAUAUUACGCACA | -0.531 ± 0.089 | 0.153 ± 0.13
CCUGAGCAAUAUUACGAAGU | -4.12 ± 0.75 | –
UUUCAGCAAUAUUACGCCAU | -4.23 ± 0.72 | -3.34 ± 0.52
UGAAAGCAAUAUUACGAGAC | -0.86 ± 0.82 | –
GACGAGCAAUAUUACGCCAU | – | -2.19 ± 0.55
CGCCAGCAAUAUUACGUCUA | -4.02 ± 0.51 | –
GACUAGCAAUAUUACGCCAA | -2.8 ± 0.52 | –
UUCCAGCAAUAUUACGCGCU | – | -2.34 ± 0.64
UGCGAGCAAUAUUACGGUUC | -2.75 ± 0.28 | -2.31 ± 0.63
UCCCAGCAAUAUUACGCCAC | -2.29 ± 0.51 | -0.194 ± 0.53
CCGGAGCAAUAUUACGUGAC | – | -1.43 ± 0.55
AUCUAGCAAUAUUACGCGAU | -5.66 ± 0.71 | –
GGGUAGCAAUAUUACGAGGU | -4.26 ± 1 | –
GGUGAGCAAUAUUACGCAAG | -5.68 ± 1 | –
GUCGAGCAAUAUUACGAGGG | -2.96 ± 0.51 | –
CCUGAGCAAUAUUACGAGCU | -2.86 ± 0.58 | –
GUUGAGCAAUAUUACGUAUA | – | -4.33 ± 0.51
AUUGAGCAAUAUUACGUGGG | -4.84 ± 0.58 | –
UUUAAGCAAUAUUACGCGGC | -3.47 ± 0.53 | –
GACUAGCAAUAUUACGCUAU | -3.58 ± 0.53 | –

Record cards, from the list above. Order of values: self-splicing fitness (ln) (30 °C)	self-splicing fitness (ln) (37 °C)
CCGGAGCAAUAUUACGUGAC as listed: –	-1.43 ± 0.55
AUUGAGCAAUAUUACGUGGG as listed: -4.84 ± 0.58	–
UUUAAGCAAUAUUACGCGGC as listed: -3.47 ± 0.53	–
GUCGAGCAAUAUUACGAGGG as listed: -2.96 ± 0.51	–
